# Assay results taken from the supplement of paper PMC4604168 (melanoma cell lines).
# Some of the results follow. Single values are uncertain, as repeats are few or missing.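 The apoptosis fraction was the count of cleaved-PARP antibody-stained nuclei relative to all DNA-stained nuclei, imaged in 1,536-well plates. Screening doses were set so most cells survived, and baseline and induced cleaved-PARP levels vary greatly across cell lines.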
# Legend:
# Test in all cases: cleaved PARP positive nuclei fraction relative to DMSO control; melanoma cells; higher = more apoptosis
# Settings in all cases: library dose: low library concentration; 72 h
# WM115 = tested on: WM115
# WM1716 = tested on: WM1716
# WM1745 = tested on: WM1745
# WM3526 = tested on: WM3526
# WM3619 = tested on: WM3619
# WM451Lu = tested on: WM451Lu
SMILES,cleaved PARP positive nuclei fraction (WM115) [%],cleaved PARP positive nuclei fraction (WM1716) [%],cleaved PARP positive nuclei fraction (WM1745) [%],cleaved PARP positive nuclei fraction (WM3526) [%],cleaved PARP positive nuclei fraction (WM3619) [%],cleaved PARP positive nuclei fraction (WM451Lu) [%]
"COc1cc([C@@H]2c3cc4c(cc3[C@@H](O[C@@H]3O[C@@H]5CO[C@@H](C)O[C@H]5[C@H](O)[C@H]3O)[C@H]3COC(=O)[C@H]23)OCO4)cc(OC)c1O [etoposide] + CCN(CC)CCCCNc1ncc2cc(-c3cc(OC)cc(OC)c3)c(NC(=O)NC(C)(C)C)nc2n1 [PD173074] (first compound 0.02 µM, partner dose 0.1 µM)",77.6,74.2,92.9,121,93.3,193
"Cc1cn(-c2cc(NC(=O)c3ccc(C)c(Nc4nccc(-c5cccnc5)n4)c3)cc(C(F)(F)F)c2)cn1 [nilotinib] + COCC[n+]1c2c(n(Cc3cnccn3)c1C)C(=O)c1ccccc1C2=O [YM155] (first compound 0.2 µM, partner dose 0.0004 µM)",55,69,94.2,19.6,87.4,72.4
"O=c1[nH]nc(Sc2ncc([N+](=O)[O-])s2)n1-c1ccc2c(c1)OCCO2 + O=C(/C=C/c1cccnc1)NCCCCC1CCN(C(=O)c2ccccc2)CC1 [FK866] (first compound 0.2 µM, partner dose 0.01 µM)",105,111,168,74.3,111,85.3
"Cc1cc(Nc2cc(N3CCN(C)CC3)nc(Sc3ccc(NC(=O)C4CC4)cc3)n2)n[nH]1 [Tozasertib] + CCCS(=O)(=O)Nc1ccc(F)c(C(=O)c2c[nH]c3ncc(Cl)cc23)c1F [PLX4720] (first compound 0.006 µM, partner dose 0.08 µM)",167,33.5,105,290,99.1,32.4
"Cc1ccc(Nc2nccc(N(C)c3ccc4c(C)n(C)nc4c3)n2)cc1S(N)(=O)=O [Pazopanib] + Nc1ccn([C@@H]2O[C@H](CO)[C@@H](O)C2(F)F)c(=O)n1 [gemcitabine] (first compound 0.4 µM, partner dose 0.0004 µM)",69.6,54.2,115,117,104,60.2
"O=C(/C=C/c1cccnc1)NCCCCC1CCN(C(=O)c2ccccc2)CC1 + Nc1ncn([C@H]2C[C@H](O)[C@@H](CO)O2)c(=O)n1 [decitabine] (first compound 0.01 µM, partner dose 0.1 µM)",107,117,184,143,112,95.2
"O=c1[nH]nc(Sc2ncc([N+](=O)[O-])s2)n1-c1ccc2c(c1)OCCO2 + Nc1ncn([C@H]2C[C@H](O)[C@@H](CO)O2)c(=O)n1 [decitabine] (first compound 0.2 µM, partner dose 0.1 µM)",202,39.5,97,73.7,191,45.1
"Cc1ccc(Nc2nccc(N(C)c3ccc4c(C)n(C)nc4c3)n2)cc1S(N)(=O)=O [Pazopanib] + Cn1nnc2c(C(N)=O)ncn2c1=O [temozolomide] (first compound 0.4 µM, partner dose 2 µM)",130,116,103,84.8,106,49.4
"O=c1[nH]nc(Sc2ncc([N+](=O)[O-])s2)n1-c1ccc2c(c1)OCCO2 + OCc1c[nH]c2ccccc12 [Indole-3-carbinol] (first compound 0.2 µM, partner dose 0.8 µM)",131,131,101,210,80.1,102
"N#CC[C@H](C1CCCC1)n1cc(-c2ncnc3[nH]ccc23)cn1 [ruxolitinib] + c1cc(-c2cnn3cc(-c4ccc(OCCN5CCCCC5)cc4)cnc23)ccn1 [Dorsomorphin] (first compound 1 µM, partner dose 0.4 µM)",39.8,231,101,48.3,82.6,105
"O=c1[nH]nc(Sc2ncc([N+](=O)[O-])s2)n1-c1ccc2c(c1)OCCO2 + Cn1c(Nc2ccc(C(F)(F)F)cc2)nc2cc(Oc3ccnc(-c4ncc(C(F)(F)F)[nH]4)c3)ccc21 [CHIR265] (first compound 0.2 µM, partner dose 0.08 µM)",332,37.9,128,160,98,47.5
"O=C(/C=C/c1cccnc1)NCCCCC1CCN(C(=O)c2ccccc2)CC1 + O=c1cc(-c2cccc3c2Sc2ccccc2S3)oc(N2CCOCC2)c1 [KU55933] (first compound 0.01 µM, partner dose 1 µM)",242,305,104,40.4,114,39.5
"O=C(/C=C/c1cccnc1)NCCCCC1CCN(C(=O)c2ccccc2)CC1 + CNC(=O)c1cc(Oc2ccc(NC(=O)Nc3ccc(Cl)c(C(F)(F)F)c3)cc2)ccn1 [sorafenib] (first compound 0.01 µM, partner dose 0.4 µM)",51.1,73.6,165,80.9,111,146
"Cc1cc(Nc2cc(N3CCN(C)CC3)nc(Sc3ccc(NC(=O)C4CC4)cc3)n2)n[nH]1 [Tozasertib] + CCN(CC)CCNC(=O)c1c(C)[nH]c(/C=C2\C(=O)Nc3ccc(F)cc32)c1C [sunitinib] (first compound 0.006 µM, partner dose 0.4 µM)",94.7,43.8,127,42.2,79.4,90.6
"Cc1ccc(Nc2nccc(N(C)c3ccc4c(C)n(C)nc4c3)n2)cc1S(N)(=O)=O [Pazopanib] + Cn1sc(=O)n(Cc2ccccc2)c1=O [TDZD-8] (first compound 0.4 µM, partner dose 0.4 µM)",98.5,150,105,82.3,83.4,32.3
"CC[C@]1(O)C[C@H]2CN(CCc3c([nH]c4ccccc34)[C@@](C(=O)OC)(c3cc4c(cc3OC)N(C=O)[C@H]3[C@@](O)(C(=O)OC)[C@H](OC(C)=O)[C@]5(CC)C=CCN6CC[C@]43[C@@H]65)C2)C1 [vincristine] + CN(c1ncccc1CNc1nc(Nc2ccc3c(c2)CC(=O)N3)ncc1C(F)(F)F)S(C)(=O)=O [PF562271] (first compound 0.0001 µM, partner dose 0.08 µM)",1080,158,101,52.9,244,166
"O=C(/C=C/c1cccnc1)NCCCCC1CCN(C(=O)c2ccccc2)CC1 + c1cc(-c2cnn3cc(-c4ccc(OCCN5CCCCC5)cc4)cnc23)ccn1 [Dorsomorphin] (first compound 0.01 µM, partner dose 0.4 µM)",68.2,54,91.4,160,105,166
"N#CC[C@H](C1CCCC1)n1cc(-c2ncnc3[nH]ccc23)cn1 [ruxolitinib] + OCc1c[nH]c2ccccc12 [Indole-3-carbinol] (first compound 1 µM, partner dose 0.8 µM)",82.8,107,104,63.7,112,69.8
"CC[C@]1(O)C[C@H]2CN(CCc3c([nH]c4ccccc34)[C@@](C(=O)OC)(c3cc4c(cc3OC)N(C=O)[C@H]3[C@@](O)(C(=O)OC)[C@H](OC(C)=O)[C@]5(CC)C=CCN6CC[C@]43[C@@H]65)C2)C1 [vincristine] + CC(=O)O[C@@]12CO[C@@H]1C[C@H](O)[C@@]1(C)C(=O)[C@H](O)C3=C(C)[C@@H](OC(=O)[C@H](O)[C@@H](NC(=O)OC(C)(C)C)c4ccccc4)C[C@@](O)([C@@H](OC(=O)c4ccccc4)[C@H]21)C3(C)C [Docetaxel] (first compound 0.0001 µM, partner dose 0.0001 µM)",1610,100,146,151,166,153
"O=C(Nc1cc(C(F)(F)F)cc(C(F)(F)F)c1)c1cc(Cl)ccc1O + COc1cc(N2CCC(N3CCN(C)CC3)CC2)ccc1Nc1ncc(Cl)c(Nc2ccccc2S(=O)(=O)C(C)C)n1 [NVP-TAE684] (first compound 0.016 µM, partner dose 0.08 µM)",87.2,52.4,111,57,112,230
"O=C(Nc1cc(C(F)(F)F)cc(C(F)(F)F)c1)c1cc(Cl)ccc1O + O=C(CCCCCCC(=O)Nc1ccccc1)NO [vorinostat] (first compound 0.016 µM, partner dose 0.08 µM)",181,452,85.2,139,96.3,76.4
"Cc1ccc(Nc2nccc(N(C)c3ccc4c(C)n(C)nc4c3)n2)cc1S(N)(=O)=O [Pazopanib] + Nc1nc(F)nc2c1ncn2[C@@H]1O[C@H](CO)[C@@H](O)[C@@H]1O [fludarabine] (first compound 0.4 µM, partner dose 0.2 µM)",183,404,120,105,123,43.3
"CCCCCCCCCCCCCCCCCCOP(=O)([O-])OC1CC[N+](C)(C)CC1 [Perifosine] + CN(C)S(=O)(=O)c1ccc2c(c1)/C(=C/c1cc3c([nH]1)CCCC3)C(=O)N2 [SU6656] (first compound 0.4 µM, partner dose 0.4 µM)",53.1,38.1,87.3,207,81.1,72.5
"Cc1cn(-c2cc(NC(=O)c3ccc(C)c(Nc4nccc(-c5cccnc5)n4)c3)cc(C(F)(F)F)c2)cn1 [nilotinib] + Cc1nc(Nc2ncc(C(=O)Nc3c(C)cccc3Cl)s2)cc(N2CCN(CCO)CC2)n1 [dasatanib] (first compound 0.2 µM, partner dose 0.004 µM)",98.8,70.2,123,83.9,90,91

# Single values from the list:
# In cleaved PARP positive nuclei fraction (WM3619) [%], CC[C@]1(O)C[C@H]2CN(CCc3c([nH]c4ccccc34)[C@@](C(=O)OC)(c3cc4c(cc3OC)N(C=O)[C@H]3[C@@](O)(C(=O)OC)[C@H](OC(C)=O)[C@]5(CC)C=CCN6CC[C@]43[C@@H]65)C2)C1 [vincristine] + CC(=O)O[C@@]12CO[C@@H]1C[C@H](O)[C@@]1(C)C(=O)[C@H](O)C3=C(C)[C@@H](OC(=O)[C@H](O)[C@@H](NC(=O)OC(C)(C)C)c4ccccc4)C[C@@](O)([C@@H](OC(=O)c4ccccc4)[C@H]21)C3(C)C [Docetaxel] (first compound 0.0001 µM, partner dose 0.0001 µM) has the entry 166
# In cleaved PARP positive nuclei fraction (WM115) [%], Cc1cc(Nc2cc(N3CCN(C)CC3)nc(Sc3ccc(NC(=O)C4CC4)cc3)n2)n[nH]1 [Tozasertib] + CCN(CC)CCNC(=O)c1c(C)[nH]c(/C=C2\C(=O)Nc3ccc(F)cc32)c1C [sunitinib] (first compound 0.006 µM, partner dose 0.4 µM) has the entry 94.7
